According to patent US11883379B1, “9-flouro-dibenzo[B,G]indeno[1′, 2′:3,4]fluoreno-[1,2-D]oxonine-5, 11, 16,21-tetraone as an antimicrobial agent” (KING FAISAL UNIVERSITY, priority 2023, dated 2024):
For at least one compound, name, drawing or mass did not settle the structure.

What was measured:
Experiment in all cases: Antimicrobial screening by agar dilution
Format in all cases: cell-based
E. Coli = tested on: E. Coli
Candida albicans = tested on: Candida albicans
St. Aureus = tested on: St. Aureus
Ps. Aeruginosa = tested on: Ps. Aeruginosa
[1] = dilution rate 1:100, exposure time 10 min
[2] = dilution rate 1:100, exposure time 20 min
[3] = dilution rate 1:100, exposure time 40 min
[4] = dilution rate 1:100, exposure time 60 min
[5] = dilution rate 1:200, exposure time 10 min
[6] = dilution rate 1:200, exposure time 20 min
[7] = dilution rate 1:200, exposure time 40 min
[8] = dilution rate 1:200, exposure time 60 min
[9] = dilution rate 1:400, exposure time 10 min
[10] = dilution rate 1:400, exposure time 20 min
[11] = dilution rate 1:400, exposure time 40 min
[12] = dilution rate 1:400, exposure time 60 min
[13] = dilution rate 1:800, exposure time 10 min
[14] = dilution rate 1:800, exposure time 20 min
[15] = dilution rate 1:800, exposure time 40 min
[16] = dilution rate 1:800, exposure time 60 min

With `NC(=O)N/N=C/c1ccc([N+](=O)[O-])o1` [Furacilin] the antimicrobial activity (E. Coli; [1]) was “−”, the antimicrobial activity (E. Coli; [2]) was “−” and the antimicrobial activity (E. Coli; [3]) was “−”. For the same compound, the antimicrobial activity (E. Coli; [4]) was “−”, the antimicrobial activity (E. Coli; [5]) was “+” and the antimicrobial activity (E. Coli; [6]) was “+”. The antimicrobial activity (E. Coli; [7]) was “+”, the antimicrobial activity (E. Coli; [8]) was “+” and the antimicrobial activity (E. Coli; [9]) was “+”. For the same compound, the antimicrobial activity (E. Coli; [10]) was “+”, the antimicrobial activity (E. Coli; [11]) was “+” and the antimicrobial activity (E. Coli; [12]) was “+”. For the same compound, the antimicrobial activity (E. Coli; [13]) was “+”, the antimicrobial activity (E. Coli; [14]) was “+” and the antimicrobial activity (E. Coli; [15]) was “+”. The antimicrobial activity (E. Coli; [16]) was “+”, the antimicrobial activity (Candida albicans; [1]) was “−” and the antimicrobial activity (Candida albicans; [2]) was “−”. For the same compound, the antimicrobial activity (Candida albicans; [3]) was “+”, the antimicrobial activity (Candida albicans; [4]) was “+” and the antimicrobial activity (Candida albicans; [5]) was “+”. The antimicrobial activity (Candida albicans; [6]) was “+”, the antimicrobial activity (Candida albicans; [7]) was “+” and the antimicrobial activity (Candida albicans; [8]) was “+”. For the same compound, the antimicrobial activity (Candida albicans; [9]) was “+”, the antimicrobial activity (Candida albicans; [10]) was “+” and the antimicrobial activity (Candida albicans; [11]) was “+”. For the same compound, the antimicrobial activity (Candida albicans; [12]) was “+”, the antimicrobial activity (Candida albicans; [13]) was “+” and the antimicrobial activity (Candida albicans; [14]) was “+”. The antimicrobial activity (Candida albicans; [15]) was “+”, the antimicrobial activity (Candida albicans; [16]) was “+” and the antimicrobial activity (St. Aureus; [1]) was “−”. For the same compound, the antimicrobial activity (St. Aureus; [2]) was “−”, the antimicrobial activity (St. Aureus; [3]) was “−” and the antimicrobial activity (St. Aureus; [4]) was “−”. The antimicrobial activity (St. Aureus; [5]) was “+”, the antimicrobial activity (St. Aureus; [6]) was “+” and the antimicrobial activity (St. Aureus; [7]) was “+”. For the same compound, the antimicrobial activity (St. Aureus; [8]) was “+”, the antimicrobial activity (St. Aureus; [9]) was “+” and the antimicrobial activity (St. Aureus; [10]) was “+”. For the same compound, the antimicrobial activity (St. Aureus; [11]) was “+”, the antimicrobial activity (St. Aureus; [12]) was “+” and the antimicrobial activity (St. Aureus; [13]) was “+”. For the same compound, the antimicrobial activity (St. Aureus; [14]) was “+”, the antimicrobial activity (St. Aureus; [15]) was “+” and the antimicrobial activity (St. Aureus; [16]) was “+”. For the same compound, the antimicrobial activity (Ps. Aeruginosa; [1]) was “+”, the antimicrobial activity (Ps. Aeruginosa; [2]) was “+” and the antimicrobial activity (Ps. Aeruginosa; [3]) was “+”. For the same compound, the antimicrobial activity (Ps. Aeruginosa; [4]) was “+”, the antimicrobial activity (Ps. Aeruginosa; [5]) was “+” and the antimicrobial activity (Ps. Aeruginosa; [6]) was “+”. The antimicrobial activity (Ps. Aeruginosa; [7]) was “+”, the antimicrobial activity (Ps. Aeruginosa; [8]) was “+” and the antimicrobial activity (Ps. Aeruginosa; [9]) was “+”. For the same compound, the antimicrobial activity (Ps. Aeruginosa; [10]) was “+”, the antimicrobial activity (Ps. Aeruginosa; [11]) was “+” and the antimicrobial activity (Ps. Aeruginosa; [12]) was “+”. The antimicrobial activity (Ps. Aeruginosa; [13]) was “+”, the antimicrobial activity (Ps. Aeruginosa; [14]) was “+” and the antimicrobial activity (Ps. Aeruginosa; [15]) was “+”. The antimicrobial activity (Ps. Aeruginosa; [16]) was “+”.
